Experimental findings from article PMC7226064 are described below.

The target in this test is Δ192AnxA11 (N-terminally truncated rat annexin A11) (rat) (UniProt Q5XI77). Put plainly: SAXS; protein in solution, 20 mM Tris-HCl, 10 °C, dilution series 0.41–2.96 mg/mL; monomeric BSA as molecular weight standard; both purified.

No constants are given. Whether binding was seen depends on the method and setting.

B1: Δ192AnxA11 (N-terminally truncated rat annexin A11) (domain or fragment, UniProt Q5XI77 193-503)
chain: TDASGFDPLRDAEVLRKAMKGFGTDEQAIIDCLGSRSNKQRQQILLSFKTAYGKDLIKDLKSELSGNFEKTILALMKTPVLFDVYEIKEAIKGAGTDEACLIEILASRSNEHIRELNRAYKTEFKKTLEEAIRSDTSGHFQRLLISLSQGNRDESTNVDMSLVQRDVQELYAAGENRLGTDESKFNAILCSRSRAHLVAVFNEYQRMTGRDIEKSICREMSGDLEQGMLAVVKCLKNTPAFFAERLNKAMRGAGTKDRTLIRIMVSRSELDLLDIRAEYKRMYGKSLYHDITGDTSGDYRKILLKICGGND
Consider B1, for which the binding result is listed as “no binding (tested: 0.41–1.18 mg/mL)”.
